{"source": "PubChem BioAssay AID493246 (Drosophila RNAi Screening Center, 2011)", "aim": "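Genes fly cells need to grow and stay alive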 (primary screen)", "system": "Drosophila Kc and S2R+ cells", "knock-down reagent": "long dsRNA against Drosophila genes", "measured": "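Cell number per well after knock-down, printed as raw plate values; calls were based on per-plate z-scores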", "reading the numbers": "Kc cell number and S2R+ cell number: higher = more cells remaining", "active means": "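Counted as a hit if cell number falls by a z-score of at least 3 within its plate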", "note": "In all, the deposit lists about 21,000 reagents; shown is a random part of those that have a named target and a result. Of all reagents, 429 (2%) were called active. 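Values are raw and not normalised between plates; calls rest on per-plate z-scores that were not deposited.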 A number with no mark means an inactive call. Reagents against one gene are numbered here. Not given: the amount of reagent, the time to read-out."}
{"Gene": "Ktl", "dsRNA no.": 1, "Kc cell number, rep 1": 1.63e6, "Kc cell number, rep 2": 1.81e6, "S2R+ cell number, rep 1": 1.24e6, "S2R+ cell number, rep 2": 1.27e6}
{"Gene": "CG6707", "dsRNA no.": 1, "Kc cell number, rep 1": 1.26e6, "Kc cell number, rep 2": 1.28e6, "S2R+ cell number, rep 1": 1.29e6, "S2R+ cell number, rep 2": 1.37e6}
{"Gene": "CG4712", "dsRNA no.": 1, "Kc cell number, rep 1": 1.56e6, "Kc cell number, rep 2": 1.52e6, "S2R+ cell number, rep 1": 1.19e6, "S2R+ cell number, rep 2": 1.24e6}
{"Gene": "GstZ1", "dsRNA no.": 1, "Kc cell number, rep 1": 1.48e6, "Kc cell number, rep 2": 1.52e6, "S2R+ cell number, rep 1": 1.22e6, "S2R+ cell number, rep 2": 1.31e6}
{"Gene": "CG3604", "dsRNA no.": 1, "Kc cell number, rep 1": 1.51e6, "Kc cell number, rep 2": 1.47e6, "S2R+ cell number, rep 1": 1.16e6, "S2R+ cell number, rep 2": 1.30e6}
{"Gene": "wfs1", "dsRNA no.": 1, "Kc cell number, rep 1": 1.51e6, "Kc cell number, rep 2": 1.51e6, "S2R+ cell number, rep 1": 1.01e6, "S2R+ cell number, rep 2": 1.09e6}
{"Gene": "5-HT1B", "dsRNA no.": 1, "Kc cell number, rep 1": 1.72e6, "Kc cell number, rep 2": 1.87e6, "S2R+ cell number, rep 1": 1.31e6, "S2R+ cell number, rep 2": 1.61e6}
{"Gene": "5-HT1B", "dsRNA no.": 2, "Kc cell number, rep 1": "1.05e5 (active)", "S2R+ cell number, rep 1": 2.88e5}
{"Gene": "Tdc1", "dsRNA no.": 1, "Kc cell number, rep 1": 1.55e6, "Kc cell number, rep 2": 1.63e6, "S2R+ cell number, rep 1": 1.07e6, "S2R+ cell number, rep 2": 1.14e6}
{"Gene": "CG8097", "dsRNA no.": 1, "Kc cell number, rep 1": 1.47e6, "Kc cell number, rep 2": 1.49e6, "S2R+ cell number, rep 1": 1.07e6, "S2R+ cell number, rep 2": 1.12e6}
{"Gene": "per", "dsRNA no.": 1, "Kc cell number, rep 1": 1.43e6, "Kc cell number, rep 2": 1.43e6, "S2R+ cell number, rep 1": 1.01e6, "S2R+ cell number, rep 2": 1.12e6}
{"Gene": "CG32733 (retired record)", "dsRNA no.": 1, "Kc cell number, rep 1": 1.32e6, "Kc cell number, rep 2": 1.48e6, "S2R+ cell number, rep 1": 9.99e5, "S2R+ cell number, rep 2": 1.09e6}
{"Gene": "Tsf1", "dsRNA no.": 1, "Kc cell number, rep 1": 1.71e6, "Kc cell number, rep 2": 1.78e6, "S2R+ cell number, rep 1": 1.15e6, "S2R+ cell number, rep 2": 1.32e6}
{"Gene": "Ttc19", "dsRNA no.": 1, "Kc cell number, rep 1": 1.55e6, "Kc cell number, rep 2": 1.56e6, "S2R+ cell number, rep 1": 1.10e6, "S2R+ cell number, rep 2": 3.17e5}
{"Gene": "Rad60", "dsRNA no.": 1, "Kc cell number, rep 1": 1.77e6, "Kc cell number, rep 2": 1.70e6, "S2R+ cell number, rep 1": 1.03e6, "S2R+ cell number, rep 2": 1.17e6}
{"Gene": "lectin-46Cb", "dsRNA no.": 1, "Kc cell number, rep 1": 1.78e6, "Kc cell number, rep 2": 1.84e6, "S2R+ cell number, rep 1": 1.26e6, "S2R+ cell number, rep 2": 1.52e6}
{"Gene": "CG3632", "dsRNA no.": 1, "Kc cell number, rep 1": 1.41e6, "Kc cell number, rep 2": 1.67e6, "S2R+ cell number, rep 1": 1.17e6, "S2R+ cell number, rep 2": 1.35e6}
{"Gene": "CG3632", "dsRNA no.": 2, "Kc cell number, rep 1": 6.13e5, "S2R+ cell number, rep 1": 8.67e5}
{"Gene": "Nup54", "dsRNA no.": 1, "Kc cell number, rep 1": 1.24e6, "Kc cell number, rep 2": 1.33e6, "S2R+ cell number, rep 1": 1.11e6, "S2R+ cell number, rep 2": 1.15e6}
{"Gene": "CG13239", "dsRNA no.": 1, "Kc cell number, rep 1": 1.48e6, "Kc cell number, rep 2": 1.47e6, "S2R+ cell number, rep 1": 1.28e6, "S2R+ cell number, rep 2": 1.38e6}
{"Gene": "SpdS", "dsRNA no.": 1, "Kc cell number, rep 1": 1.41e6, "Kc cell number, rep 2": 1.48e6, "S2R+ cell number, rep 1": 1.19e6, "S2R+ cell number, rep 2": 1.27e6}
